The list shows a part of the results.
Compound: Cc1cc(ccc1-c1ccccc1)C(=O)N1CCCN(CC1)C(=O)CCl [compound 10]
Assay: probe-labelled cysteine peptide fold change vs DMSO (competition) (log2 fold change); higher = less target engagement (more negative = stronger competition)
Settings: THP-1, incubation time: 4 h
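Further: competitive profiling in live THP-1 cells: cysteine peptides tagged with an iodoacetamide desthiobiotin (IA-DTB) probe, intensity after compound treatment relative to DMSO-treated cells.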

Sequences of proteins named here, by UniProt entry; tags and fusion partners are left off. A change or cut given only in a name is not applied to a line headed by its entry.
UniProt Q12906, whole entry, looked up: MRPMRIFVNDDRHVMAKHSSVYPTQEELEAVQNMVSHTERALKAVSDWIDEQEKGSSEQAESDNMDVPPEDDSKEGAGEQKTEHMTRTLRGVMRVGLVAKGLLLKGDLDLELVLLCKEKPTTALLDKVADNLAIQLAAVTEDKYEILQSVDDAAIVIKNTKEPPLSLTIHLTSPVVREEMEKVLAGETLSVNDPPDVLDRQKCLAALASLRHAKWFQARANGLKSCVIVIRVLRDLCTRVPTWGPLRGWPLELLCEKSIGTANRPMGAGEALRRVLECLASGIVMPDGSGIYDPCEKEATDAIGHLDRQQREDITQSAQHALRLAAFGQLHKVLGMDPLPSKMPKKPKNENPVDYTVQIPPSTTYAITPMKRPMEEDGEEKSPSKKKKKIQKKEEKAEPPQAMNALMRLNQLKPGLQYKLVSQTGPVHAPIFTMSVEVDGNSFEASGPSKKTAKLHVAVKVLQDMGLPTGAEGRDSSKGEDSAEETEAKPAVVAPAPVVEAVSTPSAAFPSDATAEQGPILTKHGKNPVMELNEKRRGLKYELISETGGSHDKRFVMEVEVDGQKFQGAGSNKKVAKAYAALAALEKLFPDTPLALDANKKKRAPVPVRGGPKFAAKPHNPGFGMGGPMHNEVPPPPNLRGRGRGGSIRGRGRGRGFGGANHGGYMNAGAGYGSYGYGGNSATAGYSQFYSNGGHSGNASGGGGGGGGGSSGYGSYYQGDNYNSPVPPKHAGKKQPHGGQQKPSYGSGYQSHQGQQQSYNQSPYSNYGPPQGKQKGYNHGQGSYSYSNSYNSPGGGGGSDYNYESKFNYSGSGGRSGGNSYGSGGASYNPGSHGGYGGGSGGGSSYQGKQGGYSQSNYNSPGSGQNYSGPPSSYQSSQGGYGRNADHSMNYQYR
UniProt P29218: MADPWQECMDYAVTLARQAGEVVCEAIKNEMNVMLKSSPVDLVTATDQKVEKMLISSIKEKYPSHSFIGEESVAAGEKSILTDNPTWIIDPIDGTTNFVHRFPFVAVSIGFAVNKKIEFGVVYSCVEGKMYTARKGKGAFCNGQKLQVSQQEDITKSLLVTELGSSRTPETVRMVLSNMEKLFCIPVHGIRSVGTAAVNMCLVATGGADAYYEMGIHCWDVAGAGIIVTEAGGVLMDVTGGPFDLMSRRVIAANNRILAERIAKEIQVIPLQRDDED
UniProt Q9P2X3: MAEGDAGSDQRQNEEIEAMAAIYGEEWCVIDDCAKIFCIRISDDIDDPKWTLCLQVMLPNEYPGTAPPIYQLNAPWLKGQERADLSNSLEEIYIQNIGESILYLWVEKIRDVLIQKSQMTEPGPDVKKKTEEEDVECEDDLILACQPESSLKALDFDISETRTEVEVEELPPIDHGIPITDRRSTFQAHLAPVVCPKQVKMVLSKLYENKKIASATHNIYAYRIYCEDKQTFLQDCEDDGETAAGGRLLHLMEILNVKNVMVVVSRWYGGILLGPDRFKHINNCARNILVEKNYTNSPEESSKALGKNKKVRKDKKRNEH
UniProt O14920: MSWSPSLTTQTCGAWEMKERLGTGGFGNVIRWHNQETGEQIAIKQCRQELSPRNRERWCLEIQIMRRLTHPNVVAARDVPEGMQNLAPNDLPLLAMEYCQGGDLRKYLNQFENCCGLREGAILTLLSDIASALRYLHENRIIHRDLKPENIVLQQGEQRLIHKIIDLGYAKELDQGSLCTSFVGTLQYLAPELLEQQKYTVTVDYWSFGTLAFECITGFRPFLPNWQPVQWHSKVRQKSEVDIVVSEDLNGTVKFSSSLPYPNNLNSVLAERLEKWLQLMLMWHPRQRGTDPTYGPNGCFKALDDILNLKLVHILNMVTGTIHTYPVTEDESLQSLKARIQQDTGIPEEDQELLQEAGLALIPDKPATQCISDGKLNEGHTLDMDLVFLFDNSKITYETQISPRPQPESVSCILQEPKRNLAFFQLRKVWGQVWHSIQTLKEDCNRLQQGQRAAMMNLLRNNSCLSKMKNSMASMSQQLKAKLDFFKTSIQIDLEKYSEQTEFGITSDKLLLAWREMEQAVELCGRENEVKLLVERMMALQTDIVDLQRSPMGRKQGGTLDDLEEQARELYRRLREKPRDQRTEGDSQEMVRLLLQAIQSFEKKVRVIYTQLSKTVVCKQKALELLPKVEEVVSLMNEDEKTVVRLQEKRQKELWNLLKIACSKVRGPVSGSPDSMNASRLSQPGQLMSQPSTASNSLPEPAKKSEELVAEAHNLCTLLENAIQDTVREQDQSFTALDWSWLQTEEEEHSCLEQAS
UniProt P11717, whole entry, looked up: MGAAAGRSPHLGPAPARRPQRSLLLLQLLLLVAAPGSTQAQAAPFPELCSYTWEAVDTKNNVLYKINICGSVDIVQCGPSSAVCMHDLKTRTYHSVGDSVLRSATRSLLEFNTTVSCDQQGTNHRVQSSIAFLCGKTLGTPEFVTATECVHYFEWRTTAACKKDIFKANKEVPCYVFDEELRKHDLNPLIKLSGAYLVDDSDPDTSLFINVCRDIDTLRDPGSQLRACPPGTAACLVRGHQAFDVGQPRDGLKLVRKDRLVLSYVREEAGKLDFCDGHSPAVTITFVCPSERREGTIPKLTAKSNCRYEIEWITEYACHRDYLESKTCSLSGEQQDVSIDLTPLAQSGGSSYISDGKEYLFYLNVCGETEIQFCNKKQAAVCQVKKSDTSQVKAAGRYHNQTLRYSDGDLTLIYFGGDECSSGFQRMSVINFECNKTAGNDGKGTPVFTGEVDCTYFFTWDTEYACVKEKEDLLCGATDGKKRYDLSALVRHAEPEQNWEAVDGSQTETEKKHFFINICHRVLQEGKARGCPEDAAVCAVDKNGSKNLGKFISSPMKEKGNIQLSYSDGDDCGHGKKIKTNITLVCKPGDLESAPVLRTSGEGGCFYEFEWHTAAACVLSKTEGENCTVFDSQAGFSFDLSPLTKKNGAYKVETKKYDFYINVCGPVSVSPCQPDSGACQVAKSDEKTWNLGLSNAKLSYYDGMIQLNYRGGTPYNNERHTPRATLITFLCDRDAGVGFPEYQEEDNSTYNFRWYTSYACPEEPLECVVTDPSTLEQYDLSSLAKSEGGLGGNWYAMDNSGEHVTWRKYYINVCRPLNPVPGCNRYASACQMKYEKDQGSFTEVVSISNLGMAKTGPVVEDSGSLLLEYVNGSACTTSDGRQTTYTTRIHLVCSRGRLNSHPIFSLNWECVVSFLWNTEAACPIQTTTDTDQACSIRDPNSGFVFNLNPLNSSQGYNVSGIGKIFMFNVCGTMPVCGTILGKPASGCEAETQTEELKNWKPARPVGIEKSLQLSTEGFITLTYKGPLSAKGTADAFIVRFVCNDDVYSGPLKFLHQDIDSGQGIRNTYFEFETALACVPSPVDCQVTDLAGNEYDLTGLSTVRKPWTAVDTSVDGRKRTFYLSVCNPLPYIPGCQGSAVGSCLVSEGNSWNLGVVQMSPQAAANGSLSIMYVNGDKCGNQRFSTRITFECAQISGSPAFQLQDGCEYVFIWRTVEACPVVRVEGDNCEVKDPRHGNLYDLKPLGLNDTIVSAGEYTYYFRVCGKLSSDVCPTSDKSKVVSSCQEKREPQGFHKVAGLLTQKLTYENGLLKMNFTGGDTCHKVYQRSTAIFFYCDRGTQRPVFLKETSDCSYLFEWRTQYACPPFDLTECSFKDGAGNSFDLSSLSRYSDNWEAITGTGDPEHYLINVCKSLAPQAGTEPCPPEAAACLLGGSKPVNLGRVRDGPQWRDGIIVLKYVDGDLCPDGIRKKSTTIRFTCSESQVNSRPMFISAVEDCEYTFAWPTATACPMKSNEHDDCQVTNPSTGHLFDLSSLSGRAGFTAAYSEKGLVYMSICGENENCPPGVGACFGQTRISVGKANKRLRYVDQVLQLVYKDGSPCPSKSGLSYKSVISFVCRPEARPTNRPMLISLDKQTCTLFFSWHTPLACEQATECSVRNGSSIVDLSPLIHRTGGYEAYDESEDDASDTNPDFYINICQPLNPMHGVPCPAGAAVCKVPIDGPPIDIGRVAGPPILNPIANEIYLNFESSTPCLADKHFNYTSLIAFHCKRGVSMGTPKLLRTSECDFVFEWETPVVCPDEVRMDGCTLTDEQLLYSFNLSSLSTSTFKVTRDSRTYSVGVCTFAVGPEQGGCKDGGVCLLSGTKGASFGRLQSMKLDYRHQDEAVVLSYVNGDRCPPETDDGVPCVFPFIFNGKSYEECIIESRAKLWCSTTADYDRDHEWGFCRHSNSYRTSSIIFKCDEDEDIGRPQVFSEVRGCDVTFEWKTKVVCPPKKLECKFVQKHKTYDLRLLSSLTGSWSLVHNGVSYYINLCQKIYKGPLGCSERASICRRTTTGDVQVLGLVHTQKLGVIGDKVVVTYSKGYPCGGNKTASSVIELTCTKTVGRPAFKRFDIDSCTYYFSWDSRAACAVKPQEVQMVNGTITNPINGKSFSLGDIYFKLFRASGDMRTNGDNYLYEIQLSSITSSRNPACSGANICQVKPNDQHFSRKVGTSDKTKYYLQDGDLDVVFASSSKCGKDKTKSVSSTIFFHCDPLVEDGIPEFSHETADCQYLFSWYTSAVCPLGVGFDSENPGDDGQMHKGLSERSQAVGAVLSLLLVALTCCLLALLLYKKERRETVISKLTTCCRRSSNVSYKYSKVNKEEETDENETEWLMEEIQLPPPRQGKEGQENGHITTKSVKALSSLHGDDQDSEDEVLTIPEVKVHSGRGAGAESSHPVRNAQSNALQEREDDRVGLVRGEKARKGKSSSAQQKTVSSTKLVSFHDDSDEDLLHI
UniProt Q27J81, whole entry, looked up: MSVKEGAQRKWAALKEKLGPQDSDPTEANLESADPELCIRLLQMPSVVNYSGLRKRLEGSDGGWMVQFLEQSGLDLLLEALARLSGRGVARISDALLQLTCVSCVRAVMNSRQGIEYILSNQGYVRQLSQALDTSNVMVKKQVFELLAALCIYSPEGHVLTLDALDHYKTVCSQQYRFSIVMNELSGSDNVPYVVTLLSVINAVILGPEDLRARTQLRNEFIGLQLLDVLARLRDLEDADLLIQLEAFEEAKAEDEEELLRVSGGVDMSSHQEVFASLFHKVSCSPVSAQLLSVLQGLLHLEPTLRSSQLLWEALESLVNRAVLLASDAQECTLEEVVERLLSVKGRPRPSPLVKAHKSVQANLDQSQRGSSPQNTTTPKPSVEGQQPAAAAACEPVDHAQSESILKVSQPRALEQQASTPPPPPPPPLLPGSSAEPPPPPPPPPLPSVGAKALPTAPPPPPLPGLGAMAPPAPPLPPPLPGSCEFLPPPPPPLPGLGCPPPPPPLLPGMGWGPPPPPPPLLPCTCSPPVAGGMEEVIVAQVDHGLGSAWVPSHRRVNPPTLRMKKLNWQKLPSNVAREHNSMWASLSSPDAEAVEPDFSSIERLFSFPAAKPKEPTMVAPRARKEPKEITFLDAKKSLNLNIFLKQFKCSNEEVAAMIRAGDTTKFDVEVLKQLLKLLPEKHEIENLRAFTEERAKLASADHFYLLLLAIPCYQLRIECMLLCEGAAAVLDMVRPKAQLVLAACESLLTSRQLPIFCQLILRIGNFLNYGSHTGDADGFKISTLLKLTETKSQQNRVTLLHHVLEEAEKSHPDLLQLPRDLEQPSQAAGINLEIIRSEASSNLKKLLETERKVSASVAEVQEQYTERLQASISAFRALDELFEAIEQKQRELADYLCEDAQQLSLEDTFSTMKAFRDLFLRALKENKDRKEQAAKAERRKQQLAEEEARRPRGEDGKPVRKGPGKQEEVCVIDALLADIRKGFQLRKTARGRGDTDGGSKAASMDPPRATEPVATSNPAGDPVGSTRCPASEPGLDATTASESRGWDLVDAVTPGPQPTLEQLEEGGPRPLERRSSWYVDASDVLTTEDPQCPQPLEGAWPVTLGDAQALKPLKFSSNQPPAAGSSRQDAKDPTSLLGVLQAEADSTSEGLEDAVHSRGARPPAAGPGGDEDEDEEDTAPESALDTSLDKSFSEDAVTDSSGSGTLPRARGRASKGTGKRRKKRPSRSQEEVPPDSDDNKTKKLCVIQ
UniProt P50213: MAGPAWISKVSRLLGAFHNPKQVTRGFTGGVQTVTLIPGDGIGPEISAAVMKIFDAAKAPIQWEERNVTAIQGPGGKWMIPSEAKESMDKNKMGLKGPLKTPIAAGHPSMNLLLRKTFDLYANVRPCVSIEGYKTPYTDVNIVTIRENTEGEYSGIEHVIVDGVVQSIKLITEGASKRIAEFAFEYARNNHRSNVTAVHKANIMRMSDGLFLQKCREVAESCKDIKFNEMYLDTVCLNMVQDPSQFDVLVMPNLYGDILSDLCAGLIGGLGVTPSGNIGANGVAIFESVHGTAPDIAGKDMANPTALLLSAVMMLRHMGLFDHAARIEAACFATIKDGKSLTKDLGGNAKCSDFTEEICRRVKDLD
UniProt Q9H7X7: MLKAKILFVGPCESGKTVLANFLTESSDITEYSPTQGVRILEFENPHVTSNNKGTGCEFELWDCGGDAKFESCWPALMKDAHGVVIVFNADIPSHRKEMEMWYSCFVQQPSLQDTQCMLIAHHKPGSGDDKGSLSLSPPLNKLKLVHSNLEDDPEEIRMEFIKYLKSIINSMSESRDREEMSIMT

Row | Target | probe-labelled cysteine peptide fold change (10 µM) | probe-labelled cysteine peptide fold change (50 µM)
1 | IFT74_Q96LB3_400_AQIEANIVALLEHCSR (UniProt Q96LB3) | 0.266 | 0.147
2 | IGFBP7_Q16270_71_GEGEPCGGGGAGR (UniProt Q16270) | -0.495 | -0.954
3 | IFT88_Q13099_162_EVNELVEESCIANSCGDLK (UniProt Q13099) | -0.279 | -0.316
4 | ILF3_Q12906_278_VLECLASGIVMPDGSGIYDPCEK (UniProt Q12906) | 0.305 | 0.199
5 | IMPA1_P29218_24_QAGEVVCEAIK (UniProt P29218) | 0.188 | 0.181
6 | HYI_Q5T013_102_ALGCPR (UniProt Q5T013) | -0.118 | -0.167
7 | IDH2_P48735_418_DLAGCIHGLSNVK (UniProt P48735) | 0.0476 | 0.056
8 | HUWE1_Q7Z6Z7_3372_ACSPCSSQSSSSGICTDFWDLLVK (UniProt Q7Z6Z7) | -0.0662 | -0.703
9 | IDH1_O75874_379_DLAACIK (UniProt O75874) | -0.0344 | -0.152
10 | IFT122_Q9HBG6_519_CLDMSASR (UniProt Q9HBG6) | -0.0645 | -0.194
11 | INPP5B_P32019_475_FQFHNTSICVVNSHLAAHIEEYER (UniProt P32019) | 0.129 | 0.0857
12 | IMPACT_Q9P2X3_284_HINNCAR (UniProt Q9P2X3) | -0.174 | -0.283
13 | IMPACT_Q9P2X3_137+145_KKTEEEDVECEDDLILACQPESSLK (UniProt Q9P2X3) | -0.512 | -0.316
14 | INPP5D_Q92835_956_DSPLGPCR (UniProt Q92835) | -0.366 | -0.376
15 | IDE_P14735_257_FHSAYYSSNLMAVCVLGR (UniProt P14735) | -0.258 | -0.244
16 | HYOU1_Q9Y4L1_352_VEFEELCADLFER (UniProt Q9Y4L1) | 0.00354 | 0.233
17 | IKBKB_O14920_464_NNSCLSK (UniProt O14920) | -0.345 | -0.953
18 | HUWE1_Q7Z6Z7_183_ENGFGLAECCR (UniProt Q7Z6Z7) | -0.226 | -0.485
19 | ILKAP_Q9H0C8_190_CLLDTFK (UniProt Q9H0C8) | 0.067 | -0.0759
20 | INO80_Q9ULG1_765_DVENELSDKIEILMYCQLTSR (UniProt Q9ULG1) | 0.195 | 0.306
21 | IGF2R_P11717_830_YASACQMK (UniProt P11717) | -0.0935 | -0.183
22 | IARS2_Q9NSE4_883_KPGLEEAVESACAMR (UniProt Q9NSE4) | 0.0507 | 0.0705

Row | Target | probe-labelled cysteine peptide fold change (10 µM) | probe-labelled cysteine peptide fold change (50 µM)
23 | IGF2R_P11717_149_TLGTPEFVTATECVHYFEWR (UniProt P11717) | 0.00273 | -0.0538
24 | IFI16_Q16666_351+356_MDVVGTGQCHNIPCEEGDK (UniProt Q16666) | -0.467 | -0.24
25 | IMPA1_P29218_184_LFCIPVHGIR (UniProt P29218) | 0.128 | 0.0433
26 | INF2_Q27J81_971_KGPGKQEEVCVIDALLADIRK (UniProt Q27J81) | -0.309 | -0.717
27 | IDH3A_P50213_331_IEAACFATIK (UniProt P50213) | 0.303 | 0.39
28 | HUWE1_Q7Z6Z7_3635_HLGYTLCK (UniProt Q7Z6Z7) | -0.53 | 0.14
29 | HYAL3_O43820_220_CHAATLAR (UniProt O43820) | -0.0639 | -0.0817
30 | IDH3B_O43837_233_LGDGLFLQCCEEVAELYPK (UniProt O43837) | 0.321 | 0.357
31 | INO80_Q9ULG1_1049_QCLLNGAPELAADWLNRR (UniProt Q9ULG1) | 0.124 | -0.359
32 | ILVBL_A1L0T0_354_ADVIVLAGTVCDFR (UniProt A1L0T0) | -0.0184 | 0.266
33 | IL17RA_Q96F46_185_NFLVPDCEHAR (UniProt Q96F46) | -0.118 | 0.217
34 | IDH3A_P50213_359_CSDFTEEICR (UniProt P50213) | -0.0425 | 0.335
35 | IGF2R_P11717_1783_TSECDFVFEWETPVVCPDEVR (UniProt P11717) | -0.691 | -0.178
36 | IGFBP4_P22692_249_GELDCHQLADSFRE (UniProt P22692) | -0.63 | -0.381
37 | ICAM3_P32942_139_CQVEDGSPR (UniProt P32942) | -0.173 | -0.194
38 | ING2_Q9H160_34_LLTCYVQDYLECVESLPHDMQR (UniProt Q9H160) | -0.0543 | 0.0393
39 | INF2_Q27J81_38_LGPQDSDPTEANLESADPELCIR (UniProt Q27J81) | -0.0201 | -0.0578
40 | IDH3G_P51553_148_TSLDLYANVIHCK (UniProt P51553) | 0.0372 | -0.0281
41 | IFT22_Q9H7X7_12_ILFVGPCESGK (UniProt Q9H7X7) | -0.195 | -0.174
42 | IDNK_Q5T6J7_63_GIPLNDQDRIPWLCNLHDILLR (UniProt Q5T6J7) | -0.171 | 0.128
43 | HUWE1_Q7Z6Z7_2721_DQSAQCTASK (UniProt Q7Z6Z7) | -0.0419 | -0.255

Retrieved one by one from above, 2 records:
Row | Target | probe-labelled cysteine peptide fold change (10 µM) | probe-labelled cysteine peptide fold change (50 µM)
17 | IKBKB_O14920_464_NNSCLSK (UniProt O14920) | -0.345 | -0.953
8 | HUWE1_Q7Z6Z7_3372_ACSPCSSQSSSSGICTDFWDLLVK (UniProt Q7Z6Z7) | -0.0662 | -0.703
